Where a name gives a salt, the structure may show the parent alone.
Key:
[1] = tested on: T1, human serum albumin (HSA); assay: Time-resolved fluorescence lifetimes (TCSPC) of HSA–anticoagulant complexes; format: binding; settings: aerated, 293 K, λex 279 nm
T1 construct: purchased Sigma-Aldrich

fatty-acid-free HSA = tested on: T2, fatty-acid-free HSA; assay: Isothermal titration calorimetry (ITC) of anticoagulants with HSA; format: binding, human; settings: phosphate buffer 10 mM, pH 7.4
T2 construct: purchased Sigma-Aldrich
Procedure: ITC analyses were performed in phosphate buffer, 10 mM, pH = 7.4. […] Lower ionization enthalpy reduces heat signals associated with proton-exchange reactions between the buffer and the ligand/host system during complex formation. […] A plot of the heat released per mole of HSA as a function of the molar ratio of the solution ([HSA]/[anticoagulant]) is shown at the foot of each figure. […] Control titrations were performed (drug over buffer) and subtracted from each analysis before the fitting.
ITC data were obtained using a MicroCal PEAQ-ITC instrument (Malvern Panalytical). […] Working solutions were prepared using aliquots of the stock solutions of anticoagulants diluted in phosphate buffer, 10 mM, pH = 7.4. […] The first injection was 0.40 μL, followed by 12 injections of 3.0 μL. Reference power was set to 5 μcal/s, 500 rpm stirring speed, initial delay of 60 s, and injection spacing of 150 s. Titration curves were drawn in duplicate and the thermodynamic parameters were fitted to the one-site binding model using Microcal PEAQ-ITC analysis software. Controls were measured by recording the heat effects of the titrant over plain buffer and were subtracted from thermograms before fitting analysis. All the measurements were performed in duplicate.

Row | Compound | <τF> average fluorescence lifetime ([1]; HSA:drug 1:1, HSA 2 µM) | A1 pre-exponential factor ([1]; HSA:drug 1:1, HSA 2 µM) | A2 pre-exponential factor ([1]; HSA:drug 1:1, HSA 2 µM) | τ1 fluorescence lifetime ([1]; HSA:drug 1:1, HSA 2 µM) [ns] | τ2 fluorescence lifetime ([1]; HSA:drug 1:1, HSA 2 µM) [ns] | <τF> average fluorescence lifetime ([1]; HSA:drug 1:2, HSA 2 µM) | A1 pre-exponential factor ([1]; HSA:drug 1:2, HSA 2 µM) | A2 pre-exponential factor ([1]; HSA:drug 1:2, HSA 2 µM) | τ1 fluorescence lifetime ([1]; HSA:drug 1:2, HSA 2 µM) [ns] | τ2 fluorescence lifetime ([1]; HSA:drug 1:2, HSA 2 µM) [ns] | <τF> average fluorescence lifetime ([1]; HSA:drug 1:4, HSA 2 µM) | A1 pre-exponential factor ([1]; HSA:drug 1:4, HSA 2 µM) | A2 pre-exponential factor ([1]; HSA:drug 1:4, HSA 2 µM) | τ1 fluorescence lifetime ([1]; HSA:drug 1:4, HSA 2 µM) [ns] | τ2 fluorescence lifetime ([1]; HSA:drug 1:4, HSA 2 µM) [ns] | <τF> average fluorescence lifetime ([1]; HSA:drug 1:6, HSA 2 µM) | A1 pre-exponential factor ([1]; HSA:drug 1:6, HSA 2 µM) | A2 pre-exponential factor ([1]; HSA:drug 1:6, HSA 2 µM) | τ1 fluorescence lifetime ([1]; HSA:drug 1:6, HSA 2 µM) [ns] | τ2 fluorescence lifetime ([1]; HSA:drug 1:6, HSA 2 µM) [ns] | also measured
1 | COc1ccc(-n2nc(C(N)=O)c3c2C(=O)N(c2ccc(N4CCCCC4=O)cc2)CC3)cc1 [AP, apixaban] | 5.30 | 0.45 | 0.55 | 3.22 | 7.01 | 5.23 | 0.41 | 0.59 | 2.93 | 6.83 | 5.19 | 0.38 | 0.62 | 2.73 | 6.69 | 5.16 | 0.42 | 0.58 | 2.86 | 6.83 | ITC heat-evolution signals compared with control dilution experiments (fatty-acid-free HSA): showed heat-evolution signals associated with the binding processes
2 | COc1ccc(NC(=O)c2ccc(C(=N)N(C)C)cc2)c(C(=O)Nc2ccc(Cl)cn2)c1 [BE, betrixaban] | 5.32 | 0.39 | 0.61 | 3.03 | 6.78 | 5.30 | 0.38 | 0.62 | 2.89 | 6.78 | 5.26 | 0.38 | 0.62 | 2.86 | 6.73 | 5.21 | 0.35 | 0.65 | 2.60 | 6.61 | –
3 | COc1ccc(NC(=O)c2ccc(C(=N)N(C)C)cc2)c(C(=O)Nc2ccc(Cl)cn2)c1 [BEM, betrixaban maleate] | – | – | – | – | – | – | – | – | – | – | – | – | – | – | – | – | – | – | – | – | ITC heat-evolution signals compared with control dilution experiments (fatty-acid-free HSA): showed heat-evolution signals associated with the binding processes
4 | CN1CCc2nc(C(=O)N[C@@H]3C[C@@H](C(=O)N(C)C)CC[C@@H]3NC(=O)C(=O)Nc3ccc(Cl)cn3)sc2C1 [ED, edoxaban] | 5.31 | 0.39 | 0.61 | 2.99 | 6.80 | 5.25 | 0.40 | 0.60 | 2.93 | 6.80 | 5.11 | 0.40 | 0.60 | 2.71 | 6.71 | 5.01 | – | – | 2.94 | 6.88 | –
5 | O=C(NC[C@H]1CN(c2ccc(N3CCOCC3=O)cc2)C(=O)O1)c1ccc(Cl)s1 [RV, rivaroxaban] | 5.28 | 0.40 | 0.60 | 3.00 | 6.80 | 5.25 | 0.41 | 0.59 | 2.98 | 6.82 | 5.22 | 0.42 | 0.58 | 2.98 | 6.85 | 5.18 | 0.43 | 0.57 | 2.94 | 6.87 | –
